Data as given in paper PMC10138608.
The exact form of at least one protein or probe is not confirmed. Tags and fusion partners may be left off the protein sequences shown.

Target: T1, His-SlTCP10 (Solanum lycopersicum) (UniProt G3BGV0)
T1 sequence (looked up, limits assumed): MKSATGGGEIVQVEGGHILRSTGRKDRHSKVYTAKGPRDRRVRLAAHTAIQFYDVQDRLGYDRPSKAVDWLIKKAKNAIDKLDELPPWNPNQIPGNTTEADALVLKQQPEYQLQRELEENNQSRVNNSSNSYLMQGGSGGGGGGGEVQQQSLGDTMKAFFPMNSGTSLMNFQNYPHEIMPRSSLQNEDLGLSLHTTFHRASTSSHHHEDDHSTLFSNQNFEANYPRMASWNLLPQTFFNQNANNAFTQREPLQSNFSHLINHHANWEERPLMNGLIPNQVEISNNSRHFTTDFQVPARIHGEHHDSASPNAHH
Assay: EMSA
Settings: 50x and 100x unlabelled probe weakened the band; Chemiluminescent biotin EMSA, 0.5x TBE gel, 100 V on ice; binding buffer, salt and pH not stated; recombinant protein; protein details: His; label: biotin

## TTTATTTAGATTCATGTATTTGGTCCAAAACTTTACTGCTCGATAAGGTC (double strand) [JA2p-EMSA (SlJA2 promoter probe)]
  binding result: binds
